{"source": "PubChem BioAssay AID1053208 | Peter MacCallum Cancer Centre | 2014", "test": "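Find knock-downs that sensitise mouse osteosarcoma cells to doxorubicin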 (primary screen)", "system": "mouse osteosarcoma cells, early-passage culture from an engineered mouse model of fibroblastic bone tumour", "reagent": "siRNA pool against mouse genes, 40 nM", "time to read-out": "about 120 h (48 h before drug, then 72 h with drug)", "conditions": "doxorubicin 100 nM for 72 h, roughly 30-40% inhibitory dose", "measurement": "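Luminescent ATP signal taken as viability with or without 100 nM doxorubicin for 72 h; mean of two wells set against non-targeting siRNA and turned into robust z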", "reading the numbers": "viability z-score with doxorubicin: higher = more viable cells under doxorubicin; viability z-score without drug: higher = more viable cells with knock-down alone", "call rule": "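a pool counts as active when its viability z-score with doxorubicin is -2 or below and its z-score without drug lies between -2 and 2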", "note": "Here is an unselected part of about 17,000 reagents. Of all reagents, 788 (4.7%) are marked active. 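Calls rest on z-score classes alone; an extra cut-off of viability at most 70% of control was not applied to them.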 Entries without a mark were called inactive. Not all columns of the deposit are shown."}
{"Gene":"Cbx3 (GeneID 12417)","combined z-score class":"no change with or without drug","viability z-score with doxorubicin":-0.45,"viability z-score without drug":0.34}
{"Gene":"Slx4ip (GeneID 74243)","combined z-score class":"low cell count with doxorubicin only (active)","viability z-score with doxorubicin":-2.47,"viability z-score without drug":-0.17}
{"Gene":"Rpp21 (GeneID 67676)","combined z-score class":"no change with or without drug","viability z-score with doxorubicin":0,"viability z-score without drug":-0.84}
{"Gene":"Astn1 (GeneID 11899)","combined z-score class":"no change with or without drug","viability z-score with doxorubicin":-0.22,"viability z-score without drug":-0.17}
{"Gene":"Arhgef12 (GeneID 69632)","combined z-score class":"low cell count with doxorubicin only (active)","viability z-score with doxorubicin":-2.14,"viability z-score without drug":0.51}
{"Gene":"Adprhl1 (GeneID 234072)","combined z-score class":"high cell count with doxorubicin only","viability z-score with doxorubicin":2.14,"viability z-score without drug":1.52}
{"Gene":"Ccnl2 (GeneID 56036)","combined z-score class":"no change with or without drug","viability z-score with doxorubicin":-1.57,"viability z-score without drug":0.17}
{"Gene":"Tfap4 (GeneID 83383)","combined z-score class":"no change with or without drug","viability z-score with doxorubicin":-0.45,"viability z-score without drug":-0.84}
{"Gene":"1700088E04Rik (GeneID 27660)","combined z-score class":"no change with or without drug","viability z-score with doxorubicin":-1.24,"viability z-score without drug":-0.51}
{"Gene":"Tspan11 (GeneID 68498)","combined z-score class":"no change with or without drug","viability z-score with doxorubicin":0,"viability z-score without drug":-0.51}
{"Gene":"Abcc12 (GeneID 244562)","combined z-score class":"no change with or without drug","viability z-score with doxorubicin":0.67,"viability z-score without drug":-0.17}
{"Gene":"Mtmr12 (GeneID 268783)","combined z-score class":"no change with or without drug","viability z-score with doxorubicin":1.91,"viability z-score without drug":0.84}
{"Gene":"Crb3 (GeneID 224912)","combined z-score class":"no change with or without drug","viability z-score with doxorubicin":0.67,"viability z-score without drug":0}

In a second layout: entries from further up.
Gene	combined z-score class	viability z-score with doxorubicin	viability z-score without drug
Cbx3 (GeneID 12417)	no change with or without drug	-0.45	0.34
Slx4ip (GeneID 74243)	low cell count with doxorubicin only (active)	-2.47	-0.17
Rpp21 (GeneID 67676)	no change with or without drug	0	-0.84
Astn1 (GeneID 11899)	no change with or without drug	-0.22	-0.17

The results go on:
{"Gene":"Dbnl (GeneID 13169)","combined z-score class":"no change with or without drug","viability z-score with doxorubicin":0,"viability z-score without drug":-0.34}
{"Gene":"Glyat (GeneID 107146)","combined z-score class":"no change with or without drug","viability z-score with doxorubicin":1.12,"viability z-score without drug":-0.84}
{"Gene":"Cct6a (GeneID 12466)","combined z-score class":"low cell count without drug only","viability z-score with doxorubicin":-0.22,"viability z-score without drug":-2.19}
{"Gene":"Larp7 (GeneID 28036)","combined z-score class":"no change with or without drug","viability z-score with doxorubicin":0.45,"viability z-score without drug":-0.84}
{"Gene":"Wnt7a (GeneID 22421)","combined z-score class":"no change with or without drug","viability z-score with doxorubicin":0.22,"viability z-score without drug":-1.52}
{"Gene":"Chrna5 (GeneID 110835)","combined z-score class":"no change with or without drug","viability z-score with doxorubicin":-0.11,"viability z-score without drug":-0.34}
{"Gene":"Ctsg (GeneID 13035)","combined z-score class":"no change with or without drug","viability z-score with doxorubicin":0.67,"viability z-score without drug":-0.67}
{"Gene":"Prrc1 (GeneID 73137)","combined z-score class":"no change with or without drug","viability z-score with doxorubicin":1.01,"viability z-score without drug":0.51}
{"Gene":"Rab10os (GeneID 74173)","combined z-score class":"no change with or without drug","viability z-score with doxorubicin":-1.35,"viability z-score without drug":-1.18}
{"Gene":"Acbd3 (GeneID 170760)","combined z-score class":"no change with or without drug","viability z-score with doxorubicin":0.67,"viability z-score without drug":0.34}
{"Gene":"Grik2 (GeneID 14806)","combined z-score class":"no change with or without drug","viability z-score with doxorubicin":0.22,"viability z-score without drug":-0.17}
{"Gene":"Tufm (GeneID 233870)","combined z-score class":"no change with or without drug","viability z-score with doxorubicin":-0.67,"viability z-score without drug":-0.84}
{"Gene":"Taar2 (GeneID 209512)","combined z-score class":"no change with or without drug","viability z-score with doxorubicin":-0.45,"viability z-score without drug":1.35}
{"Gene":"Dapp1 (GeneID 26377)","combined z-score class":"no change with or without drug","viability z-score with doxorubicin":-1.35,"viability z-score without drug":0.34}
{"Gene":"Parva (GeneID 57342)","combined z-score class":"no change with or without drug","viability z-score with doxorubicin":-0.45,"viability z-score without drug":-0.51}
